Our source for the binding values is publication PMC11781175.

Amino acid sequences for entries named in this document (tags omitted).
UniProt P46937: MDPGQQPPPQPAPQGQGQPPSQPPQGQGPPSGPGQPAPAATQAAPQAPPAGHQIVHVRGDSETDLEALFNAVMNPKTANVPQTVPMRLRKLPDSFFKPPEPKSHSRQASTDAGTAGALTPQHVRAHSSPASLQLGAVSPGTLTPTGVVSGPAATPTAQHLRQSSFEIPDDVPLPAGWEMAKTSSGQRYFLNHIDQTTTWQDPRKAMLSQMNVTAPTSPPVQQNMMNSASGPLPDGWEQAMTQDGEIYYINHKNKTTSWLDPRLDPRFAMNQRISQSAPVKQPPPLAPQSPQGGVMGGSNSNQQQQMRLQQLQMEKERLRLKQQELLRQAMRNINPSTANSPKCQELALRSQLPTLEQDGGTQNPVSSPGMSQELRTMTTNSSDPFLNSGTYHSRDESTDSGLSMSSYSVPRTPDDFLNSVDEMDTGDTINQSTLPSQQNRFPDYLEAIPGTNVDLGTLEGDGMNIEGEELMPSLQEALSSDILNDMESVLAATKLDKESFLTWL

These are yes or no findings as the source states them, for the method shown. In cells and extracts the contact can be indirect. Some binding calls cover weakened binding; strength is not graded here.

For this test, the target named is Yes1-associated transcriptional regulator (human (endogenous in HK-2)) (UniProt P46937). The test is described as follows: co-IP; HK-2 cell lysates (500 ul lysis buffer, sonicated); supernatant incubated with anti-YAP1 antibody, anti-Nrf2 antibody or control IgG at 4 °C overnight, then protein A/G agarose beads at 4 °C overnight; washed three times; western blotting. A general note: A western blot detects proteins with antibodies after separation by electrophoresis.

B1: Nuclear factor erythroid 2-related factor 2 (protein, UniProt Q16236 1-605)
chain: MMDLELPPPGLPSQQDMDLIDILWRQDIDLGVSREVFDFSQRRKEYELEKQKKLEKERQEQLQKEQEKAFFAQLQLDEETGEFLPIQPAQHIQSETSGSANYSQVAHIPKSDALYFDDCMQLLAQTFPFVDDNEVSSATFQSLVPDIPGHIESPVFIATNQAQSPETSVAQVAPVDLDGMQQDIEQVWEELLSIPELQCLNIENDKLVETTMVPSPEAKLTEVDNYHFYSSIPSMEKEVGNCSPHFLNAFEDSFSSILSTEDPNQLTVNSLNSDATVNTDFGDEFYSAFIAEPSISNSMPSPATLSHSLSELLNGPIDVSDLSLCKAFNQNHPESTAEFNDSDSGISLNTSPSVASPEHSVESSSYGDTLLGLSDSEVEELDSAPGSVKQNGPKTPVHSSGDMVQPLSPSQGQSTHVHDAQCENTPEKELPVSPGHRKTPFTKDKHSSRLEAHLTRDELRAKALHIPFPVEKIINLPVVDFNEMMSKEQFNEAQLALIRDIRRRGKNKVAAQNCRKRKLENIVELEQDLDHLKDEKEKLLKEKGENDKSLHLLKKQLSTLYLEVFSMLRDEDGKPYSPSEYSLQQTRDGNVFLVPKSKKPDVKKN
Consider B1, for which the binding entry is recorded as “binds”.
